Measurements reported in PubChem BioAssay AID504467 (National Center for Advancing Translational Sciences (NCATS), 2011).
In all, about 330,000 compounds went through this assay and about 7,700 (2.3%) were called active. Inconclusive results, whose numbers are uncertain, are shown with a selection of clear calls. The call rests on the fitted dose curve; in most records, active means well fitted inhibition curve with a large enough effect; inconclusive means small, poorly fitted or top-dose-only effect, or effect the other way; inactive means flat fitted curve, though single readings scatter. Potencies of inconclusive entries are doubtful fits and often do not repeat.

Assay: qHTS screen for small molecules that inhibit ELG1-dependent DNA repair in human embryonic kidney (HEK293T) cells expressing luciferase-tagged ELG1; further: nearly all actives have a fitted effect of over 55% in size
Conditions: HEK293T ELG1-luciferase reporter, luminescence, 16 h, DNA damage induced by 5-fluorouridine; activity change, negative = inhibition: at 46.1 µM (top of the series)
Outline: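 HEK293T cells expressing luciferase-tagged ELG1 (2,000/well) received 5-Fluorouridine plus compound or DMSO for 16 hr at 37 °C. Luciferase was read by ONE-Glo luminescence after 30 min at room temperature.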
On the % scale 0 is the no-effect control and ±100 the full control effect; potency means the concentration at half of the fitted maximal effect.

| Compound | Potency | activity change, negative = inhibition |
| --- | --- | --- |
| C=CCn1c(NCc2ccccc2O)nc2ccccc21 | inconclusive: 20.6 µM [activator, partial curve] | – |
| Cc1ccc(NC(=O)c2cc(S(=O)(=O)N3CCc4ccccc43)cn2C)cc1C | – | inactive: -9.52% |
| CCC(=O)N1CC2(CC(c3cccc([N+](=O)[O-])c3)=NO2)C[C@H]1C(=O)NCC(N)=O (stereo not given in full) | inconclusive: 25.9 µM [activator, partial curve, poor fit] | – |
| O=C(CN(c1ccccc1)S(=O)(=O)c1ccccc1[N+](=O)[O-])Nc1ccccc1C(=O)N1CCOCC1 | – | inactive: 13% |
| Nc1nc(N)nc(-c2cc([N+](=O)[O-])ccc2O)n1 | inconclusive: 0.461 µM [inhibitor, partial curve, poor fit] | – |
| CC1(C)C(C(=O)OCC(Cl)(Cl)Cl)N2C(=O)C(NC(=O)Cc3ccccc3)C2S1=O (stereo not given) | – | inactive: -8% |
| O=C(O)c1ccc(N/N=C/c2ccc(OC(=O)c3cccc(Cl)c3)cc2)cc1 | inconclusive: 0.291 µM [activator, partial curve] | – |
| CCCN1C(=O)c2ccccc2NC1c1ccc(Br)cc1 (stereo not given) | – | inactive: -5.75% |
| COc1cc(OC)cc(-c2nnc(SCC(=O)Nc3cccc(C(=O)O)c3)s2)c1 | – | inactive: 15.6% |
| Cc1ccc(NS(=O)(=O)c2ccc(NC(=O)c3ccc(Br)o3)cc2)c(C)c1 | inconclusive: 29.1 µM [inhibitor, single point] | – |
| COc1ccc(-c2cc(C(=O)Nc3ccc4c(c3)OCO4)no2)cc1OC | inconclusive: 16.4 µM [activator, single point] | – |
| COC(C[C@@H]1O[C@@H]1[C@H](O)[C@H](C)OCc1ccccc1)OC | – | inactive: 13.9% |
| C=CCNC(=O)c1ccc2c3n(nc2c1)-c1ccc(C)cc1CO3 | inconclusive: 2.91 µM [activator, partial curve] | – |
| CC(=O)NC(=S)Nc1ccc2oc(-c3cc(F)c(F)cc3Cl)nc2c1 | inconclusive: 2.91 µM [activator, full curve] | – |
| Cc1ccc(CNC(=O)COC(=O)Cc2ccc(-c3ccccc3)cc2)cc1 | – | inactive: -13.1% |
| CC(C)CCNC(=O)C1CCN(S(=O)(=O)c2ccc(-n3cnnn3)cc2)CC1 | inconclusive: 14.6 µM [activator, partial curve, poor fit] | – |
| Cc1ccc(-n2nc3ccc(N)cc3n2)cc1C | inconclusive: 1.64 µM [activator, full curve] | – |
| COc1ccc(/C(N)=N/OC(=O)c2ccco2)cc1OC | inconclusive: 11.6 µM [activator, partial curve] | – |
| Cc1cccc(C)c1OCC(=O)Nc1cc(Cl)ccc1-n1cncn1 | – | inactive: -16.5% |
| NC(=O)C1(N2CCCCC2)CCN(Cc2ccc(Br)cc2)CC1 | inconclusive: 23.1 µM [inhibitor, partial curve, poor fit] | – |
| CC(Oc1cccc(Cl)c1)C(=O)Nc1ccncc1 (stereo not given) | inconclusive: 29.1 µM [inhibitor, single point] | – |
| Cc1ccc(C(=O)N2CCN(Cc3ccc4c(c3)OCO4)CC2)cc1[N+](=O)[O-] | inconclusive: 18.3 µM [inhibitor, partial curve] | – |
| COC(=O)CSc1ncccc1-c1nc2ccccc2[nH]1 | inconclusive: 14.6 µM [activator, partial curve] | – |
| CCOc1ccccc1NC(=O)CCS(=O)(=O)c1ccc2c(c1)CC(C)N2C(C)=O (stereo not given) | – | inactive: -0.103% |

3 entries out of the list, ordered by SMILES length, smallest number first:

| Compound | Potency | activity change, negative = inhibition |
| --- | --- | --- |
| CCCN1C(=O)c2ccccc2NC1c1ccc(Br)cc1 (stereo not given) | – | inactive: -5.75% |
| O=C(O)c1ccc(N/N=C/c2ccc(OC(=O)c3cccc(Cl)c3)cc2)cc1 | inconclusive: 0.291 µM [activator, partial curve] | – |
| CC1(C)C(C(=O)OCC(Cl)(Cl)Cl)N2C(=O)C(NC(=O)Cc3ccccc3)C2S1=O (stereo not given) | – | inactive: -8% |

(listing goes on)

| Compound | Potency | activity change, negative = inhibition |
| --- | --- | --- |
| CCSc1nnc(NC(=O)CSc2nnc(-c3c[nH]c4ccccc34)n2C)s1 | – | inactive: -0.0749% |
| Cc1cc(CN2CCC(n3nccc3NC(=O)c3ccccc3C)CC2)n[nH]1 | – | inactive: -9.21% |
| COc1ccc(CNC(=O)CN(Cc2ccco2)C(=O)CNS(=O)(=O)c2ccc(F)cc2)cc1 | – | inactive: 8.98% |
| COC(=O)C1Cc2c([nH]c3ccccc23)C2(CCN(Cc3ccccc3)CC2)N1 (stereo not given) | – | inactive: -12.9% |
| CCCOc1ccc(C(=O)CCC(=O)NNC(=O)Cn2nc(C)cc2C)cc1 | – | inactive: 23.2% |
| C=CCn1c(SCC(=O)Nc2sccc2C(N)=O)nc2sc(C)c(C)c2c1=O | – | inactive: 8.05% |
| O=C(/C=C1\NC2(CCCC2)Cc2ccccc21)C(=O)N/N=C/c1ccccc1O | active: 2.31 µM | – |
| CCCC1Cc2c(sc(N)c2C#N)CO1 (stereo not given) | – | inactive: 18.6% |
| Cc1c(C2(O)CCCCC2)[nH]c2ccc(C(F)(F)F)cc12 | inconclusive: 14.6 µM [activator, partial curve] | – |
| Cc1ccc(SC(C)C(=O)N2CCN(c3ccccc3)CC2)cc1 (stereo not given) | – | inactive: -5.59% |
| COc1ccc(S(=O)(=O)N(C)C[C@H]2Oc3ccc(NS(=O)(=O)c4ccccc4)cc3C(=O)N([C@H](C)CO)C[C@@H]2C)cc1 | inconclusive: 23.1 µM [inhibitor, single point] | – |
| N#CCOc1ccccc1/C=C/c1nc2ccccc2c(=O)[nH]1 | inconclusive: 18.3 µM [activator, partial curve] | – |
| CN(C(=O)c1sc2nc(N3CCCC3)c3c(c2c1N)CC(C)(C)OC3)c1ccccc1 | inconclusive: 8.2 µM [inhibitor, partial curve] | – |
| Cc1ccc(SCC(=O)N2CCN(c3ccccn3)CC2)cc1 | inconclusive: 16.4 µM [activator, partial curve] | – |
| CCOC(=O)C1CCCCN1C(=O)/C(=C/c1ccc(OC)cc1)c1ccc(OC)c(OC)c1 (stereo not given) | active: 18.3 µM | – |
| Cc1c(NC(=O)c2cc(-c3ccc(O)cc3)on2)c(=O)n(-c2ccccc2)n1C | inconclusive: 29.1 µM [inhibitor, single point] | – |
| COc1ccc(/C=C2\N=C(c3ccccc3)N(c3ccc(C(=O)O)cc3)C2=O)cc1OC | inconclusive: 23.1 µM [activator, single point] | – |
| Cc1cc(C(=O)NNC(=S)NCc2ccco2)n(C)n1 | – | inactive: -2.59% |
| O=C(CCn1c(=O)oc2ccccc21)Nc1nccs1 | inconclusive: 29.1 µM [activator, single point] | – |
| Cc1cccc(C(=O)NCC(c2ccco2)N2CCc3ccccc32)c1 (stereo not given) | inconclusive: 25.9 µM [inhibitor, single point] | – |
| CCCN(CCC)S(=O)(=O)c1ccc(C(=O)Nc2nc(-c3ccccc3)c(C(=O)OCC)s2)cc1 | inconclusive: 7.31 µM [inhibitor, partial curve, poor fit] | – |
| O=C(COC(=O)/C=C/c1ccc(C(F)(F)F)cc1)NC(=O)NCc1ccco1 | – | inactive: 14.7% |
| C=CCn1c(SCc2nc3cc(C(=O)OC)ccc3c(=O)[nH]2)nc2sc(CC)cc2c1=O | active: 8.2 µM | – |
| Nc1c(-c2ccccc2)cnn1-c1cccc(C(F)(F)F)c1 | inconclusive: 4.11 µM [activator, full curve] | – |

| Compound | Potency | activity change, negative = inhibition |
| --- | --- | --- |
| COc1ccc(-c2[nH]ncc2N=Nc2ccccc2)cc1 | inconclusive: 20.6 µM [inhibitor, single point] | – |
| CCCOc1nc2c(c(=O)n(C)c(=O)n2C)n1Cc1cccc2ccccc12 | active: 16.4 µM | – |
| COc1ccc(NC(=O)/C(C#N)=C/c2ccc(Sc3nncn3C)c([N+](=O)[O-])c2)cc1 | inconclusive: 23.1 µM [activator, single point] | – |
| COC(=O)c1ccc2[nH]c(C3(O)CCCCC3)c(C)c2c1 | inconclusive: 3.66 µM [activator, full curve] | – |
| CCCc1ccc(C(=O)NNc2ccccc2F)cc1 | inconclusive: 29.1 µM [inhibitor, single point] | – |
| COc1cc(-c2ccc(NC(=O)c3ccc(C)cc3)c(OC)c2)ccc1NC(=O)c1ccc(C)cc1 | – | inactive: 12.6% |
| COCCN1C(=O)N(c2ccc(Cl)cc2)C(=O)C1CC(=O)Nc1cc(OC)cc(OC)c1 (stereo not given) | inconclusive: 18.3 µM [inhibitor, partial curve] | – |
| COc1ccc2[nH]c(=O)c(CN(C)C(=O)COc3ccccc3)cc2c1 | – | inactive: -14.1% |
| CCCCn1c(SCC(=O)NNC(=O)c2ccco2)nnc1-c1ccco1 | inconclusive: 29.1 µM [activator, partial curve, poor fit] | – |
| Cc1cc(OCC(=O)N(C)Cc2ccccc2)ccc1Cl | inconclusive: 14.6 µM [activator, partial curve] | – |
| COC(=O)c1ccc2c(c1O)C(=O)c1ccccc1C2=O | inconclusive: 32.6 µM [inhibitor, single point] | – |
| N#CC1=C(N)OC2=C(CCc3ccccc32)C1c1ccccc1Cl (stereo not given) | inconclusive: 3.26 µM [inhibitor, partial curve, poor fit] | – |
| Cc1[nH]c2ccccc2c1CCNC(=O)CCC(=O)c1ccccc1 | – | inactive: -7.8% |
| C=CCNCC(O)COc1ccc(C(C)=O)cc1OC (stereo not given) | inconclusive: 29.1 µM [activator, single point] | – |
| CC1(C)C(=O)Nc2ccccc2N1C(=O)COC(=O)c1cc(Cl)cc(Cl)c1 | inconclusive: 25.9 µM [inhibitor, single point] | – |
| COC(=O)CC1=C(C(=O)OC)C(c2cccc(OCC(N)=O)c2)C(C#N)=C(N)O1 (stereo not given) | inconclusive: 16.4 µM [activator, single point] | – |
| Cc1nn(CC(C)C)c(Cl)c1C(=O)N(C)CC(=O)Nc1c(Cl)cccc1Cl | – | inactive: 1.99% |
| O=C(C1=C[C@H](c2ccc3c(c2)OCO3)C[C@H](OCc2ccc(CO)cc2)O1)N1CCCCCCC1 | – | inactive: -14.9% |
| CN(C(=O)CSc1nncn1-c1ccccc1)C1CCS(=O)(=O)C1 (stereo not given) | inconclusive: 5.17 µM [activator, single point] | – |
| COc1cc(CNCc2cccc(OC)c2OC)cc(OC)c1 | inconclusive: 0.562 µM [activator, single point] | – |
| CCc1ccc(CNc2ccc(N3CCN(C(C)=O)CC3)cc2)cc1 | inconclusive: 14.6 µM [inhibitor, partial curve, poor fit] | – |
| CCOc1ccc(CN2CCN(Cc3nc4c(s3)CCCC4)CC2CCO)cc1 (stereo not given) | inconclusive: 20.6 µM [inhibitor, single point] | – |

Another view of some results above.
Compound	Potency	activity change, negative = inhibition
C=CCn1c(NCc2ccccc2O)nc2ccccc21	inconclusive: 20.6 µM [activator, partial curve]	–
CCCOc1ccc(C(=O)CCC(=O)NNC(=O)Cn2nc(C)cc2C)cc1	–	inactive: 23.2%
